Test results taken from patent US8175815B2, “Method for assessing absorption properties of low solubility compounds” (F. Hoffmann-La Roche AG, priority 2006, dated 2012).

Settings: PAMPA, 30 min, 50 µM

Pe(pH 5.0) [cm s^−1]	Pe(pH 6.2) [cm s^−1]	Pe(pH 7.4) [cm s^−1]	SMILES
581	1110	1180	CCCCc1oc2ccccc2c1C(=O)c1cc(I)c(OCCN(CC)CC)c(I)c1 [amiodarone]
525	58	4	COc1ccc2cc([C@H](C)C(=O)O)ccc2c1 [naproxen]
